PubChem BioAssay AID1259424 – University of Nebraska Medical Center – 2018
Shown is an unselected part of about 14,000 deposited reagents. 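Higher correlation or smaller distance means closer resemblance to KSR1 loss; control wells, including KSR1 knockdowns, recur on many plates.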 Not given: the time to read-out.

Purpose: 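Find knockdowns that reproduce the expression shifts seen after KSR1 loss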 (primary screen)
Cells: human HCT116 colon cancer cells
Reagents: siRNA pool against human genes, 50 nM
Detection: 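Six signature mRNAs by branched-DNA multiplex assay, scaled to two housekeeping genes and non-targeting median, log2; matched to mean KSR1 knockdown profile by Pearson correlation and euclidean distance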
Reading the numbers: mean correlation with KSR1 profile and KSR1 correlation: higher = expression change more like KSR1 knockdown; mean distance from KSR1 profile: higher = expression change less like KSR1 knockdown

no.	Target gene	mean correlation with KSR1 profile	mean distance from KSR1 profile	KSR1 correlation, replicate 1	KSR1 correlation, replicate 2	KSR1 correlation, replicate 3
1	BECN1	0.00249	2.51	0.0676	0.15	-0.142
2	TLE3	0.57	3.56	0.628	0.577	0.385
3	TRIR	-0.112	3.87	0	-0.269	-0.195
4	BMPR1B	0.162	2.59	0.0452	-0.251	0.424
5	TP53	0.62	0.809	0.727	0.6	0.532
6	UPF3B	-0.488	7.65	-0.19	-0.196	-0.334
7	PKN1	0.638	1.89	0.673	0.66	0.79
8	LZIC	0.238	2.23	0.133	0.198	0.315
9	ASIC5	-0.573	1.55	-0.189	-0.858	-0.398
10	TEC	0.673	1.5	0.855	0.584	0.141
11	LOXL2	-0.712	3.3	-0.724	-0.724	-0.744
12	VILL	0.0164	1.08	-0.001	0.127	0.141
13	ALG8	0.239	1.35	0.426	0.492	0.0382
14	RAE1	-0.0874	2.34	-0.234	0.0145	-0.277
15	PIP4P2	-0.775	1.76	-0.519	-0.853	-0.659
16	YPEL3	0.518	2.42	0.388	0.541	0.469
17	FAF2	-0.847	1.66	-0.815	-0.777	-0.662
18	TMEM79	0.344	2	-0.23	0.411	0.551
19	TRPV1	0.52	1.19	0.566	0.371	0.587
20	DUSP11	0.0212	1.4	0.00868	0.0609	-0.0819
21	RTEL1	-0.0635	2.45	-0.344	0.0575	0.0229
22	GBGT1	-0.487	1.88	-0.432	-0.514	-0.525
23	SRPK2	-0.0336	1.77	0.47	-0.681	0.00625
24	OR2K2	-0.509	2.67	-0.164	-0.605	-0.614
25	OPRK1	0.333	1.93	0.33	0.427	0.27
26	FILIP1L	0.0297	1.6	0.115	-0.155	-0.118
27	BORCS8-MEF2B	0.576	0.977	0.742	0.775	0.443
28	PDE3B	0.0122	1.38	0.019	-0.106	0.136
29	HCFC1R1	-0.137	3.88	0.0782	-0.139	-0.0541
30	SPHK1	0.479	1.26	0.703	-0.403	0.301
31	MYT1L	-0.299	1.53	-0.241	0.572	-0.448
32	FBXO9	-0.447	3.2	-0.556	-0.351	-0.463
33	MAT2B	-0.632	2.7	-0.685	-0.588	-0.643
34	STN1	0.46	1.66	0.201	0.637	0.462
35	RIMS1	-0.00732	1.76	0.18	-0.215	0.0605
36	HIC1	0.463	3.25	0.599	0.534	0.37
37	THRSP	-0.563	2.51	-0.651	-0.48	-0.608
38	ADSL	0.174	5.47	0.26	-0.443	0.11
39	LONP2	0.273	1.82	0.147	0.372	0.105
40	SYNPO2L	0.525	1.65	0.571	0.634	0.442
41	MAP10	0.00819	1.31	-0.15	0.176	0.133
42	PLEKHA5	0.591	1.6	0.38	0.624	0.453
43	SLC1A7	-0.387	2.76	-0.344	-0.367	-0.414
44	TCL1A	-0.614	5.67	-0.465	-0.628	-0.797
45	SRP54	-0.396	2.66	-0.189	-0.51	-0.425
46	SUMF2	0.561	1.29	0.89	0.234	0.364
47	PLK4	-0.682	2.53	-0.106	-0.72	-0.662
48	ALG6	-0.313	1.43	-0.483	-0.323	0.0998
49	SH2D2A	0.343	2.65	0.436	0.208	0.276
50	NKX2-5	0.259	1.18	0.291	0.708	-0.0628

Only “mean correlation with KSR1 profile”, for 2 of the entries above:
SRPK2: -0.0336
OR2K2: -0.509
